In paper PMC12670160, “A drug-repurposing screen of FDA- and EMA-approved drugs identifies two NF-κB inhibitors active against eumycetoma” (Journal of Antimicrobial Chemotherapy, 2025):
Structures can show the parent of a compound that is named as a salt. Among all 5,300 compounds or so, about 130 (2.5%) showed an effect of 50% or more. This is one part of the list.

Each compound was assayed on M. mycetomatis strain mm55. Conditions: primary screen, metabolic activity vs growth control; 96 h, 2 µM; inhibitor.

Row | SMILES | % viability
1 | CC(CNC(=O)c1cccnc1)NC(=O)c1cccnc1 (stereo not drawn) [ONC0004572, nicaraven] | 59.54%
2 | O=C1C=CC[C@@H]2[C@H]3CCCN4CCC[C@@H](CN12)[C@@H]34 [ONC0003435, sophocarpine] | 68.56%
3 | O=C(Nc1ccccc1)N1CCN(c2nc(-c3ccccc3)ns2)CC1 [ONC0005025, jnj 1661010] | 98.63%
4 | O=C(O)C(=O)CBr [ONC0001161, 3bromopyruvic acid] | 97.63%
5 | CC(C)SC(=N)N [ONC0000298, sisopropylisothiourea] | 89.13%
6 | O=C(c1ccc(Cl)cc1)N(Cc1ccccc1)C1CCCCC1 [ONC0001245, fpszm1] | 58.23%
7 | CCCCCCCCCC(=O)OCCN1CCN(CCCN2c3ccccc3Sc3ccc(C(F)(F)F)cc32)CC1 [ONC0003289, fluphenazine decanoate] | 48.22%
8 | CC(C)OC(=O)[C@H](C)N[P@@](=O)(OC[C@H]1O[C@@H](n2ccc(=O)[nH]c2=O)[C@](C)(F)[C@@H]1O)Oc1ccccc1 [ONC0001857, psi7976] | 73.8%
9 | CN(c1ncccc1CNc1nc(Nc2ccc3c(c2)CC(=O)N3)ncc1C(F)(F)F)S(C)(=O)=O [ONC0004362, pf00562271] | 95.95%
10 | Cn1nc(C(C)(C)C)cc1C(=O)N[C@@H](Cc1cccc(Cl)c1)C(=O)NCC#N [ONC0005054, cathepsin inhibitor 1] | 77.37%
11 | CN(C)CCc1c[nH]c2ccc(CS(=O)(=O)N3CCCC3)cc12 [ONC0004784, almotriptan malate axert] | 131.3%
12 | CCc1ccc(OCc2ccccc2C(=O)Nc2ccc3nc(C)cc(N)c3c2)cc1 [ONC0003651, jtc801] | 82.86%
13 | CC1(COc2ccc(CC3SC(=O)NC3=O)cc2)CCCCC1 (stereo not drawn) [ONC0000875, ciglitazone] | 113.7%
14 | CCCCc1ncc(/C=C(\Cc2cccs2)C(=O)O)n1Cc1ccc(C(=O)O)cc1 [ONC0004516, eprosartan mesylate] | 73.08%
15 | N[C@@H](Cc1ccc(O)c(O)c1)C(=O)O [ONC0005307, levodopa] | 113.5%
16 | C[N@@+]1(CC2CC2)CC[C@]23c4c5ccc(O)c4O[C@H]2C(=O)CC[C@@]3(O)[C@H]1C5 [ONC0001777, methylnaltrexone bromide] | 112.6%
17 | c1coc(-c2nnc3sc(C4CCCCC4)nn23)c1 [ONC0002694, cardionogen1] | 66.72%
18 | CN1CCN2c3ccccc3Cc3ccccc3C2C1 (stereo not drawn) [ONC0005339, mianserin hydrochloride] | 65.89%
19 | CCCCCCCCOc1ccccc1C(=O)Nc1ccc(C(=O)OCC[N+](C)(CC)CC)cc1 [ONC0004831, otilonium bromide] | 103.3%
20 | C[C@@H](c1nc(-c2ccc(C#N)cc2)cs1)[C@](O)(Cn1cncn1)c1ccc(F)cc1F [Ravuconazole] | 0.9972%

Row | SMILES | % viability
21 | O=C(O)CCC(=O)c1ccc(-c2ccccc2)cc1 [ONC0003215, fenbufen] | 83.01%
22 | CC1(C)OC2(C)C(O)CC1CC2O (stereo not drawn) [ONC0003817, epomediol] | 42.26%
23 | CC(OC(=O)NCC1(CC(=O)O)CCCCC1)OC(=O)C(C)C (stereo not drawn) [ONC0003375, gabapentinenacarbil] | 59.83%
24 | COc1ccc(/C=C/C(=O)O)cc1 [ONC0003824, trans4methoxycinnamicacid] | 65.15%
25 | O=C1c2c(O)ccc(O)c2C(=O)c2c(NCCNCCO)ccc(NCCNCCO)c21 [ONC0003099, mitoxantrone hydrochloride] | 70.36%
26 | O=C(Nc1ccccc1)N[C@H]1C[C@H](C(=O)O)Nc2cc(Cl)cc(Cl)c21 [ONC0001416, l689560] | 56.01%
27 | CC(=O)O[C@H]1C[C@@H]2CC[C@@H]3[C@H](CC[C@@]4(C)[C@H]3C[C@H]([N+]3(C)CCCCC3)[C@@H]4OC(C)=O)[C@@]2(C)C[C@@H]1[N+]1(C)CCCCC1 [ONC0004633, pancuronium dibromide] | 63.07%
28 | CCOC(=O)c1ccc(NC2CCCCC2)c(N)c1 [ONC0000320, ferrostatin1] | 39.11%
29 | CO[C@H]1C[C@H](O[C@@H]2/C(C)=C/C[C@@H]3C[C@@H](C[C@]4(CC[C@H](C)[C@@H](C5CCCCC5)O4)O3)OC(=O)[C@@H]3C=C(C)/C(=N/O)[C@H]4OC/C(=C\C=C\[C@@H]2C)[C@]43O)O[C@@H](C)[C@@H]1O [ONC0002417, selamectin] | 96.9%
30 | CN1CCN(Cc2ccc(-c3cnc4[nH]cc(-c5ccc6[nH]ccc6c5)c4c3)cc2)CC1 [ONC0000994, urmc099] | 71.46%
31 | CC(C)(O)CC(=O)O.CC(C)(O)CC(=O)O [ONC0002971, betahydroxybetamethylbutyrate] | 141.8%
32 | O=C1C[C@@]2(C(=O)N1)C(=O)N(Cc1ccc(Br)cc1F)C(=O)c1cccn12 [ONC0002077, ranirestat] | 79.29%
33 | CCc1cc2c(c(CC)n1)CCC(=O)N2Cc1ccc(-c2ccccc2-c2nnn[nH]2)cc1 [ONC0001547, zd7155] | 109.6%
34 | CCOC(=O)C1=C(C)NC(C)=C(C(=O)OC)C1c1cccc(Cl)c1Cl (stereo not drawn) [ONC0003969, felodipine] | 118%
35 | COc1ccc(-c2oc3cc(OC)ccc3c2C(=O)c2ccc(C#N)cc2)cc1 [ONC0003731, ly320135] | 107.3%
36 | COC(=O)/C=C/C(=O)OC [ONC0005346, dimethyl fumarate] | 122.8%
37 | O=C(NNc1nc2cc(F)ccc2n2cccc12)c1cnccn1 [ONC0005161, sc144] | 101.7%
38 | CC(C)(C)NC[C@H](O)COc1cccc2c1CCCC2=O [ONC0002946, levobunolol] | 70.13%
39 | COc1ccc(S(=O)(=O)N2CCCN(S(=O)(=O)c3ccc(OC)c(OC)c3)CC2)cc1OC [ONC0002341, sb756050] | 63.57%

2 records drawn at random from those above, as already listed:
Row | SMILES | % viability
10 | Cn1nc(C(C)(C)C)cc1C(=O)N[C@@H](Cc1cccc(Cl)c1)C(=O)NCC#N [ONC0005054, cathepsin inhibitor 1] | 77.37%
37 | O=C(NNc1nc2cc(F)ccc2n2cccc12)c1cnccn1 [ONC0005161, sc144] | 101.7%
